Data from article PMC11641020.
No constants are given. Whether binding was seen depends on the method and setting. In cells and extracts the contact can be indirect. Here binding means that the protein was enriched with, or labelled near, the bait; the list need not be complete.

Chains of the proteins cited; added tags and fusions are not shown.
UniProt P55786: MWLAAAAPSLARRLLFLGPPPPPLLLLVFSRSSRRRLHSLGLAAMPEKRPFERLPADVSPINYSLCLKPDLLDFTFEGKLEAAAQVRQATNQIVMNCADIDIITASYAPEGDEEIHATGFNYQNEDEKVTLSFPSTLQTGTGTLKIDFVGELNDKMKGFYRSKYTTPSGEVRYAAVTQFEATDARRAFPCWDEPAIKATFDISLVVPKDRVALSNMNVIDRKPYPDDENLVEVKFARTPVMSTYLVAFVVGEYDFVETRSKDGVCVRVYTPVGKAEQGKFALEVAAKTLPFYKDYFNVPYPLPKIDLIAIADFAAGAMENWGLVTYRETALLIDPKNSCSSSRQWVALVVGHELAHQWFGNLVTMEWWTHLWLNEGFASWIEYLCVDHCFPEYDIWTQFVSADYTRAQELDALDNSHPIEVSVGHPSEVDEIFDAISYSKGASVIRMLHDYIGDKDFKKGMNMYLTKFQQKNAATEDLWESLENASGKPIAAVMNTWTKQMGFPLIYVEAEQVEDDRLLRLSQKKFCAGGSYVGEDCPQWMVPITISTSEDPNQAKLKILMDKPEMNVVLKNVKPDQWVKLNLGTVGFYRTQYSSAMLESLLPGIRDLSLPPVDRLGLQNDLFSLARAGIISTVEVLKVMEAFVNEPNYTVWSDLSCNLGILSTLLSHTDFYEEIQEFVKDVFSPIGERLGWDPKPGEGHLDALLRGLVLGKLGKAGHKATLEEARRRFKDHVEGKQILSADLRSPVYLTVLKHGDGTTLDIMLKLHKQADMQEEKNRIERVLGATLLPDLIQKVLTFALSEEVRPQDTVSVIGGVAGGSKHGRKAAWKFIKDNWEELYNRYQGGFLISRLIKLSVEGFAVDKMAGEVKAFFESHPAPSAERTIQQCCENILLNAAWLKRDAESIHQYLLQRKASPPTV

Molecular target: FLAG-tagged NPEPPS (puromycin-sensitive aminopeptidase), wild type (human) (UniProt P55786)
Test: affinity purification with mass spectrometry; anti-FLAG IP of NPEPPS^FLAG from KU1919 and T24 lysates, LC-MS/MS, enrichment over non-FLAG controls, n = 3 independent lysates per cell line

B1: solute carrier family 1 member 5 (SLC1A5), endogenous (protein, UniProt Q15758 1-541)
chain: MVADPPRDSKGLAAAEPTANGGLALASIEDQGAAAGGYCGSRDQVRRCLRANLLVLLTVVAVVAGVALGLGVSGAGGALALGPERLSAFVFPGELLLRLLRMIILPLVVCSLIGGAASLDPGALGRLGAWALLFFLVTTLLASALGVGLALALQPGAASAAINASVGAAGSAENAPSKEVLDSFLDLARNIFPSNLVSAAFRSYSTTYEERNITGTRVKVPVGQEVEGMNILGLVVFAIVFGVALRKLGPEGELLIRFFNSFNEATMVLVSWIMWYAPVGIMFLVAGKIVEMEDVGLLFARLGKYILCCLLGHAIHGLLVLPLIYFLFTRKNPYRFLWGIVTPLATAFGTSSSSATLPLMMKCVEENNGVAKHISRFILPIGATVNMDGAALFQCVAAVFIAQLSQQSLDFVKIITILVTATASSVGAAGIPAGGVLTLAIILEAVNLPVDHISLILAVDWLVDRSCTVLNVEGDALGAGLLQNYVDRTESRSTEPELIQVKSELPLDPLPVPTEEGNPLLKHYRGPAGDATVASEKESVM
  binding: binds
